PubChem BioAssay AID1259322 – Peter MacCallum Cancer Centre | 2017
Screen: 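Kinase knock-downs reducing the TRPV4 calcium plateau after PAR2 stimulation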 (follow-up of hits). System: human HEK293 cells with stable inducible TRPV4. Reagent: single siRNA against human genes. Treatment: PAR2 activation; agonist identity, dose and timing not stated. Measured: 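Fura-2 imaging of cytosolic calcium over time, first peak marking PAR2 and later plateau marking TRPV4 opening; both relative to mock on each plate, mean of two plates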. Scale: TRPV4 plateau calcium, % of mock: higher = stronger PAR2-dependent TRPV4 calcium entry; PAR2 peak calcium, % of mock: higher = stronger direct PAR2 calcium response. Active means: 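a knock-down counts as active when the PAR2 peak exceeds 79% of mock yet the TRPV4 plateau is below 90% of mock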.
The deposit covers 208 reagents; shown is an unselected part. Of all reagents, 72 (35%) are marked active. 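Four separate siRNAs per kinase gene, 52 genes in all; PAR2 agonist unnamed, with its dose and timing unknown.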 A number with no mark means an inactive call. The numbers tell different reagents against one gene apart. Not given: the amount of reagent, the time to read-out.

gene | siRNA no. | TRPV4 plateau calcium, % of mock | PAR2 peak calcium, % of mock
ACVRL1 (activin A receptor like type 1) | 1 | 77 (active) | 83.3
ACVRL1 (activin A receptor like type 1) | 2 | 81.3 (active) | 87.3
ACVRL1 (activin A receptor like type 1) | 3 | 75.1 (active) | 81.3
ACVRL1 (activin A receptor like type 1) | 4 | 96 | 105
IGF2R (insulin like growth factor 2 receptor) | 1 | 80.1 | 75.7
IGF2R (insulin like growth factor 2 receptor) | 2 | 91.1 | 103
IGF2R (insulin like growth factor 2 receptor) | 3 | 91.4 | 80.5
IGF2R (insulin like growth factor 2 receptor) | 4 | 69.3 | 75
TNIK (TRAF2 and NCK interacting kinase) | 1 | 80.4 (active) | 90.4
TNIK (TRAF2 and NCK interacting kinase) | 2 | 86.1 | 77
TNIK (TRAF2 and NCK interacting kinase) | 3 | 94 | 101
TNIK (TRAF2 and NCK interacting kinase) | 4 | 94.5 | 87.5
SGK3 (serum/glucocorticoid regulated kinase family member 3) | 1 | 94.9 | 104
SGK3 (serum/glucocorticoid regulated kinase family member 3) | 2 | 97 | 88.7
SGK3 (serum/glucocorticoid regulated kinase family member 3) | 3 | 80.3 (active) | 89.9
SGK3 (serum/glucocorticoid regulated kinase family member 3) | 4 | 78.7 | 76
SRMS | 1 | 70.3 (active) | 80.1
SRMS | 2 | 91.3 | 82.5
SRMS | 3 | 93 | 107
SRMS | 4 | 75.2 (active) | 93.3
SRPK1 (SRSF protein kinase 1) | 1 | 95.3 | 87.4
SRPK1 (SRSF protein kinase 1) | 2 | 83.8 (active) | 97.5
SRPK1 (SRSF protein kinase 1) | 3 | 96.7 | 98.4
SRPK1 (SRSF protein kinase 1) | 4 | 98.1 | 101
SIK3 (SIK family kinase 3) | 1 | 105 | 106
SIK3 (SIK family kinase 3) | 2 | 90.1 | 73.3
SIK3 (SIK family kinase 3) | 3 | 90.7 | 107
SIK3 (SIK family kinase 3) | 4 | 79.1 (active) | 89.7
NEK7 (NIMA related kinase 7) | 1 | 86.2 (active) | 83.5
NEK7 (NIMA related kinase 7) | 2 | 94.5 | 99.8
NEK7 (NIMA related kinase 7) | 3 | 102 | 99.3
NEK7 (NIMA related kinase 7) | 4 | 71 | 66.5

Reformatted: entries from further up
| gene | siRNA no. | TRPV4 plateau calcium, % of mock | PAR2 peak calcium, % of mock |
| --- | --- | --- | --- |
| SRPK1 (SRSF protein kinase 1) | 2 | 83.8 (active) | 97.5 |
| SRPK1 (SRSF protein kinase 1) | 3 | 96.7 | 98.4 |
